Measurements from article PMC7332298.

Target: 3xFLAG::SFA-1 (C. elegans)
Test: co-IP; Flag immunoprecipitation (FLAG M2 antibody, Dynabeads Protein G) from lysates of worms expressing HA::RNP-6, FLAG-SFA-1 or both; 0.5% NP40, 150 mM NaCl, 50 mM Tris pH 7.4; immunoblot

binding: no binding
B1: HA::RNP-6 (protein, UniProt Q9N3S4 1-749)
chain: MEENSADIENRPVAAFRPAVSVPMPVLPQDGEVFVGPGGKKDAQKIGLGLSKLSSKRKDDIQMAKKYAMDISIKQILLRQQKQQQENQQRQQMYSQALSIMSRIYVGSISFEIREDMLRRAFDPFGPIKSINMSWDPATGHHKTFAFVEYEVPEAALLAQESMNGQMLGGRNLKVNSMMFQEMRLPQNMPQAQPIIDMVQKDAKKYFRVYVSSVHPDLSETDLKSVFEAFGEIVKCQLARAPTGRGHRGFGYLEFNNLTSQSEAIAGMNMFDLGGQYLRVGKCVTPPDALTYLQPASVSAIPASVSVACAAITAKVMAAEAAAGSSPKTPSESGGSRAASPAPRAQSPATPSSSLPTDIENKAVISSPKKEPEEIEVPPLPPSAPDVVKDEPMEIEEEEEYTIPEEKPKPVAIVPPPGLAIPSLVAPPGLIAPTEIGIVVPNPSFLAQQQQKIEEKIEEEEEARTERVKLSTSQRKKMKREKLNQMTFEEKMAQVLGQQKAVQNQRMADPVTFGALDDTVAWKDPSNEDQTSEDGKMLAIMGPGRGGDNVASMALALMDGGSSLMLANNAKAKEAAAALALEPKKKKKVKEGKKIQPKLNTAQALAAAAKAGEMSDALKNEVMNSEDASLASQEGLEIRGNDARHLLMTKLMRTNRSNVIVLRNMVTPQDIDEFLEGEIREECGKYGNVIDVVIANFASSGLVKIFVKYSDSMQVDRAKAALDGRFFGGNTVKAEAYDQILFDHADYTG

No constants are given. Whether binding was seen depends on the method and setting. In cells and extracts the contact can be indirect. Where a sequence is shown, tags or fusion partners need not be part of it.
